Data published in publication PMC12040169 (PLOS Biology, 2025).
Some of the results follow.

System: T1, CTL2-GFP (C. trachomatis L2/434/Bu, GFP-expressing)
T1 construct: L2/434/Bu, GFP-expressing
Set-up: species or system HeLa; Intracellular C. trachomatis growth in HeLa cells, bulk GFP fluorescence relative to DMSO
Settings: bulk GFP, single well; 28.5 h, 10 µM; inhibitor

| SMILES | % of control remaining [%] |
| --- | --- |
| CCOC(=O)CNS(=O)(=O)c1ccc(F)cc1 [CBK034442] | 90.3527 |
| CCc1c(C(=O)NCc2cccnc2-n2cncn2)cnn1-c1ccc(OC)nn1 [CBK298309] | 132.013 |
| COc1ccnc(N2CCN(C(=O)C3(C#N)CCCCC3)CC2)n1 [CBK305739] | 137.857 |
| CCSc1c(C)cnc2c1c(=O)n(C)c(=O)n2C [CBK287748] | 97.2706 |
| COc1ccc(-c2cnc(NCC3CC3)c(C(=O)N(C)CCN(C)C)c2)cc1 [CBK076338] | 107.504 |
| CN(C)c1cccc(-c2nc(-c3ccco3)cnc2N)c1 [CBK063970] | 191.8 |
| O=C(O)/C=C/c1ccc(CNS(=O)(=O)c2ccccc2)o1 [CBK286549] | 102.456 |
| O=C(CNC(=O)C1CC=CCC1C(=O)O)Nc1ccc(N2CCCCCC2)cc1 (centres unmarked) [CBK295603] | 121.893 |
| O=C(NCC1(c2cccc(Br)c2)CCOCC1)C1CC(O)CN1 (centres unmarked) [CBK304257] | 113.125 |
| O=C(NC1CCCCC1)c1s/c(=N/O)nnc1Nc1ccccc1 [CBK022275] | 121.604 |
| COc1cc(OC)nc(CC(=O)O)n1 [CBK103537] | 100.067 |
| CN(Cc1ccco1)C(=O)c1cccc(NC(=O)C2CC2)c1 [CBK304857] | 119.566 |
| COc1cc(C)c(C)cc1S(=O)(=O)n1cnc2ccccc21 [CBK287578] | 94.9433 |
| CCC(=O)N1CCc2cc(C(O)CN3CCCC3)ccc21 (centres unmarked) [CBK283110] | 90.6431 |
| Cc1ccc(C(=O)NCCCNc2ccc(Cl)cc2[N+](=O)[O-])cc1 [CBK262334] | 99.0866 |
| Clc1ccc2nc(SCc3csc(Nc4ccccc4)n3)oc2c1 [CBK268269] | 121.75 |
| Cn1c(CNc2ccccc2[N+](=O)[O-])c(C#N)c2ccccc21 [CBK115324] | 100.979 |
| CC(C)(C)OC(=O)NCc1ccc(-c2cc(N3CCN(C(=O)c4ccco4)CC3)ncn2)cc1 [CBK091107] | 198.586 |
| Cc1ccnc2nc(C(=O)Nc3ccc4c(c3)CCC4)nn12 [CBK295194] | 175.042 |
| COc1ccc(C)cc1S(=O)(=O)N(CC(=O)Nc1ccccc1C)c1ccc(Cl)cc1 [CBK267995] | 89.5795 |
| COc1ccc2c(CC(=O)Nc3cccc(-c4csc(C)n4)c3)coc2c1 [CBK295149] | 133.796 |
| CCCc1cc(C2CCCCCN2C(=O)c2cccnc2)no1 (centres unmarked) [CBK282987] | 121.592 |
| Cc1nnnn1-c1cc(NC(=O)NCCCn2ccnc2)ccc1F [CBK305349] | 142.866 |

Random excerpt: 2 compounds from above.

| SMILES | % of control remaining [%] |
| --- | --- |
| COc1ccc(-c2cnc(NCC3CC3)c(C(=O)N(C)CCN(C)C)c2)cc1 [CBK076338] | 107.504 |
| Clc1ccc2nc(SCc3csc(Nc4ccccc4)n3)oc2c1 [CBK268269] | 121.75 |
